This is an account of results in article PMC8268348.

Sequences of proteins named here, by UniProt entry; tags and fusion partners are left off.
UniProt P61026: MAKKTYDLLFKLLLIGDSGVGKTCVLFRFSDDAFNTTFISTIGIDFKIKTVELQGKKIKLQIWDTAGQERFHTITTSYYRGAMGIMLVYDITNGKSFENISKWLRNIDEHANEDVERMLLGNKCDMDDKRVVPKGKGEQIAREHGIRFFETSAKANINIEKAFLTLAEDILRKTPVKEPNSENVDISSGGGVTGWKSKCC
UniProt P21439: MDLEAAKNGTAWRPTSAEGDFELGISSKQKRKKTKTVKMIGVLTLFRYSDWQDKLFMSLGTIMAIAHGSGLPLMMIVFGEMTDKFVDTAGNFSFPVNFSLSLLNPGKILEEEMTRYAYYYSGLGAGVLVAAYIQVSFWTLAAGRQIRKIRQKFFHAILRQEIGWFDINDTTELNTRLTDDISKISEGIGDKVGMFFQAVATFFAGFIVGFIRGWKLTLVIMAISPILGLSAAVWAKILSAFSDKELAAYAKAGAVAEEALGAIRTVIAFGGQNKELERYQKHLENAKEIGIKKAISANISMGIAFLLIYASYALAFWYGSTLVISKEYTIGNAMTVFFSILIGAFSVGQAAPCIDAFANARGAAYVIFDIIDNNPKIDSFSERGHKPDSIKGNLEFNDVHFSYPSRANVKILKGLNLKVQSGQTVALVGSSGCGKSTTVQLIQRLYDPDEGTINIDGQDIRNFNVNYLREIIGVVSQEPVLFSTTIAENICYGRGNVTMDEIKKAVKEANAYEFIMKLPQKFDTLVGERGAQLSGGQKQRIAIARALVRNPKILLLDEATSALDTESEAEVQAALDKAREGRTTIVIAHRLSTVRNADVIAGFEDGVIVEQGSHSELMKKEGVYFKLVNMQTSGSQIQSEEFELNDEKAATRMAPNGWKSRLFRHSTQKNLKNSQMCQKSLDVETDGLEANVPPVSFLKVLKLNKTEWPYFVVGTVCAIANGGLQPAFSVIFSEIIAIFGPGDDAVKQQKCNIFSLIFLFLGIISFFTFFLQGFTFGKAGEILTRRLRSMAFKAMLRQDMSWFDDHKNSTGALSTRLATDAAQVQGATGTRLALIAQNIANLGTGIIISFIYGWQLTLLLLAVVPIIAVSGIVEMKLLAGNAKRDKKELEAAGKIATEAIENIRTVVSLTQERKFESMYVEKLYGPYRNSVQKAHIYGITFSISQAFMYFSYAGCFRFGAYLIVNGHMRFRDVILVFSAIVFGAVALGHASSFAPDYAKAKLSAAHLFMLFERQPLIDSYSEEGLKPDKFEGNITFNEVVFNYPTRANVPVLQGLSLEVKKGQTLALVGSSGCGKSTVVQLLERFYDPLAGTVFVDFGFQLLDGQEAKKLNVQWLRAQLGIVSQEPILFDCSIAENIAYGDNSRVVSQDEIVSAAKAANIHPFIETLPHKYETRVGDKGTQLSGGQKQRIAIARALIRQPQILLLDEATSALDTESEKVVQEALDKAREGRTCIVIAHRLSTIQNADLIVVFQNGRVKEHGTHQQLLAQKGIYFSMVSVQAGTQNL

No constants are given. Whether binding was seen depends on the method and setting. In cells and extracts the contact can be indirect. Some results given as binding are weak or reduced against the parent protein; the word gives no strength.

Assay [1] addresses RAB10 (human (endogenous in primary human hepatocytes)) (UniProt P61026). Briefly: co-IP; endogenous ABCB4 or RAB10 immunoprecipitated from primary human hepatocyte lysates with specific antibodies; control with unspecific antibodies; immunoblot. A general note: Immunoblotting shows a protein as a band on a membrane.
The target in assay [2] is RAB10-GFP (pEGFP-RAB10-WT) (human) (UniProt P61026). Description: co-IP; HEK cells co-expressing RAB10-GFP and ABCB4; GFP or ABCB4 immunoprecipitated with specific antibodies; control with unspecific antibodies; immunoblot.
In assay [3] the target is ABCB4 (ATP-binding cassette subfamily B member 4) (human (endogenous in primary human hepatocytes)) (UniProt P21439). Description: co-IP; endogenous ABCB4 or RAB10 immunoprecipitated from primary human hepatocyte lysates with specific antibodies; control with unspecific antibodies; immunoblot.
Assay [4] deals with ABCB4 (pcDNA3-ABCB4) (human) (UniProt P21439). Description: co-IP; HEK cells co-expressing RAB10-GFP and ABCB4; GFP or ABCB4 immunoprecipitated with specific antibodies; control with unspecific antibodies; immunoblot.

As to “ABCB4 (ATP-binding cassette subfamily B member 4) (from UniProt P21439 1-1286)”, in assay [1], the binding result is listed as “binds”. With “ABCB4 (pcDNA3-ABCB4) (from UniProt P21439 1-1286)”, in assay [2], the binding entry is reported as “binds”. Turning to RAB10 (from UniProt P61026 1-200), in assay [3], the binding entry is listed as “binds”. With “RAB10-GFP (pEGFP-RAB10-WT) (from UniProt P61026 1-200)”, the binding entry in assay [4] is “binds”.
